Assay results reported in patent US20250313644A1.
Results are given in words; binding and its absence hold for the method and conditions named. Some results given as binding are weak or reduced against the parent protein; the word gives no strength.

By UniProt entry, the sequences of proteins in these tests, tags left out. Where a name states a change or a piece, a line headed by the entry shows the natural chain unless it says otherwise.
UniProt O95150: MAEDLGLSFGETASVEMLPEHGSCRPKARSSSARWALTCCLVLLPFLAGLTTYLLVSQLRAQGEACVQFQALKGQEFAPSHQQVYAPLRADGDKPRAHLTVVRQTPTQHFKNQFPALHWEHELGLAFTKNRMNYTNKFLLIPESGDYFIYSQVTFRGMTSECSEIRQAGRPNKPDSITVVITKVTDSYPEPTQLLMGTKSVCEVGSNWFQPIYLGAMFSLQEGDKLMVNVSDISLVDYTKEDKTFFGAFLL

Columns and labels:
[1] = molecular target: human TL1A (HuTL1A) (human) (UniProt O95150); assay: ELISA, biotin-HuTL1A on streptavidin, pH 7.4, 5.8, 5.6
[2] = molecular target: human TL1A (HuTL1A) (human) (UniProt O95150); assay: ELISA: biotin-HuTL1A on streptavidin plate, antibody diluted at pH 5.6, HRP-anti-human Fc, OD450
[3] = molecular target: human TL1A (HuTL1A) (human) (UniProt O95150); assay: ELISA: biotin-HuTL1A on streptavidin plate, antibody diluted at pH 5.8, HRP-anti-human Fc, OD450
[4] = molecular target: human TL1A (HuTL1A) (human) (UniProt O95150); assay: ELISA: biotin-HuTL1A on streptavidin plate, antibody diluted at pH 7.4, HRP-anti-human Fc, OD450
[5] = molecular target: human TL1A (HuTL1A) (human) (UniProt O95150); assay: competition ELISA: antibody dilution mixed 1:1 with Biotin-TL1A, added to coated DcR3 (1 µg/mL), Streptavidin-HRP, OD450; blocked partner of TL1A: DcR3
[6] = molecular target: human TL1A (HuTL1A) (human) (UniProt O95150); assay: negative staining electron microscopy
[7] = molecular target: human TL1A (HuTL1A) (human) (UniProt O95150); assay: negative staining electron microscopy, 2D average analysis
[8] = molecular target: human TL1A (HuTL1A) (human) (UniProt O95150); assay: SEC of an equimolar mixture of HuTL1A and antibody (60 µM, 30 min at room temperature)
[9] = molecular target: human TL1A (HuTL1A) (human) (UniProt O95150); assay: SEC of Fab:antigen mixtures at different ratios
[10] = molecular target: human TL1A (HuTL1A) (human) (UniProt O95150); assay: SEC of M701-4007 Fab : HuTL1A mixtures at ratios 0.5:1, 2:1, 3:1 and 6:1, with Fab alone and HuTL1A alone

Measured: binding

B1: M701-3966 (antibody, human IgG1, kappa, L234A L235A, V domains shown)
VH: ELQLQESGPGLVKPSETLSLTCAVSGVSFSDYHWAWIRQPPGKGLEWIGDINHRGHTNYNPSLKSRVTVSIDTSKNQFSLKLSSVTAADTAVYFCARDFPNFIFDYWGQGTLVTVSS
VL: DIQLTQSPGTLSLSPGERATLSCRASQSVSSYLAWYQQKPGQAPRLLIYGASKRATGIPDRFSGSGSGTDFTLTISRLEPEDFAVYYCQQYGDSPLTFGQGTKVEIKR
binds: [1] | [2] | [3] | [4] | [5]

B2: M701-4007 (antibody, human IgG1, kappa, L234A L235A, V domains shown)
VH: ELQLQESGPGLVKPSETLSLTCAVSGVSFSDYHWAWIRQPPGKGLEWIGDINHRGHTNYNPSLKSRVTVSIDTSKNQFSLKLSSVTAADTAVYFCARDFPNFIFDFWGQGTLVTVSS
VL: DIQLTQSPGTLSLSPGERATLSCRASQSVSTYLAWYQQKPGQAPRLLIYGASKRATGIPDRFSGSGSGTDFTLTISRLEPEDFAVYYCQQYGDSPLTFGQGTKVEIKR
not listed: [9] | [10]
binds: all other assays above

B3: M701-4007 Fab (Fab, V domains shown)
VH: ELQLQESGPGLVKPSETLSLTCAVSGVSFSDYHWAWIRQPPGKGLEWIGDINHRGHTNYNPSLKSRVTVSIDTSKNQFSLKLSSVTAADTAVYFCARDFPNFIFDFWGQGTLVTVSS
VL: DIQLTQSPGTLSLSPGERATLSCRASQSVSTYLAWYQQKPGQAPRLLIYGASKRATGIPDRFSGSGSGTDFTLTISRLEPEDFAVYYCQQYGDSPLTFGQGTKVEIK
binds: [9] | [10]

B4: M701-4019 (antibody, human IgG1, kappa, L234A L235A, V domains shown)
VH: ELQLQESGPGLVKPSETLSLTCAVSGVSFTDYHWAWIRQPPGKGLEWIGDINHRGHTNYNPSLKSRVTVSIDTSKNQFSLKLSSVTAADTAVYYCARDYPNFIYDYWGQGTLVTVSS
VL: DIQLTQSPGTLSLSPGERATLSCRASQSVSNYLAWYQQKPGQAPRLLIYGASRRATGIPARFSGSGSGTDFTLTISSLEPEDFAVYYCQQYAASPLTFGQGTKVEIKR
binds: [5]
